# Values from PubChem BioAssay AID504764 (Drosophila RNAi Screening Center, 2011)
# Purpose: 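Genes whose knock-down alters Notch-dependent transcription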 (primary screen)
# Cell system: Drosophila Kc167 cells
# Knock-down reagent: long dsRNA against Drosophila genes
# Duration: about 5 days (4 days dsRNA, then 24 h after transfection)
# Treatment: transfection of constitutively active membrane-tethered Notch lacking the extracellular domain, read 24 h later
# Measurement: 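Firefly luciferase from an E(spl)m3 reporter with active Notch, plus control-promoter and uninduced reporter wells for normalisation; unnormalised counts, duplicate wells a and b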
# Reading the numbers: induced reporter light, run 1, well a and induced reporter light, run 1, well b: higher = more light from the Notch target reporter with active Notch; control promoter light, run 1, well a and control promoter light, run 1, well b: higher = more light from the viral control promoter (cell number, transfection, viability); uninduced reporter light, run 1, well a: higher = more light from the Notch target reporter without active Notch
# Hit rule: 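Hit if the duplicate-averaged log2 ratio of induced to control-promoter light gives a plate-wise z beyond ±2, or induced to uninduced beyond ±1.8; weak-control or discordant-duplicate wells dropped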
# Calls: active = modifier hit (raised or lowered Notch signal); inactive = not a hit
# The deposit covers about 22,000 reagents; this is an unselected part of those that have a named target and a result. Of all reagents, 403 (1.9%) are marked active. 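Unnormalised raw counts per well; ratio z-scores behind the hit calls and whether each hit raises or lowers signal are not deposited.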 The numbers tell different reagents against one gene apart. Not stated in the record: the amount of reagent.
"induced reporter light, run 1, well a","induced reporter light, run 1, well b","control promoter light, run 1, well a","control promoter light, run 1, well b","uninduced reporter light, run 1, well a",activity call,target,reagent
39710,36875,51810,42900,4465,inactive,CG18538 (GeneID 37095),1
1.62e5,1.47e5,2.49e5,2.22e5,13275,inactive,Scsalpha2 (GeneID 42326),1
,,,,,inactive,Obp49a (GeneID 36399),1
1.86e5,1.67e5,1.59e5,1.72e5,12940,inactive,Nubpl (GeneID 35452),1
54180,45480,51765,43450,3730,inactive,amos (GeneID 35110),1
1.14e5,1.62e5,1.50e5,1.57e5,6370,inactive,stet (GeneID 38169),1
96230,1.27e5,1.59e5,1.81e5,6042,inactive,stet (GeneID 38169),2
1.22e5,1.12e5,1.57e5,1.93e5,11420,inactive,CG33635 (GeneID 3772540),1
2.39e5,1.64e5,1.68e5,1.86e5,15275,inactive,CG31705 (GeneID 34577),1
92205,1.16e5,2.00e5,1.54e5,7670,inactive,CG32333 (GeneID 38142),1
88615,90515,81190,72385,4020,inactive,CG32333 (GeneID 38142),2
99475,1.10e5,1.68e5,1.80e5,8845,inactive,CG14630 (GeneID 44620),1
1.26e5,1.19e5,1.97e5,2.06e5,8040,inactive,CG14630 (GeneID 44620),2
98475,1.28e5,48370,85010,14580,inactive,Frmd5 (GeneID 34398),1
45005,69045,62985,72115,2695,inactive,Wnt2 (GeneID 35975),1
1.94e5,1.66e5,2.15e5,2.23e5,13428,inactive,Wnt2 (GeneID 35975),2
1.12e5,1.08e5,1.74e5,1.50e5,12360,inactive,Apc (GeneID 44642),1
2.28e5,2.43e5,2.32e5,2.39e5,15120,inactive,CG1622 (GeneID 32282),1
98690,95450,85130,38800,7832,inactive,l(1)G0004 (GeneID 33033),1
1.17e5,82585,97935,69825,7805,inactive,Dnaaf3 (GeneID 37125),1
